Results deposited as PubChem BioAssay AID1508597 (Cure First, 2020)

Assay: 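Survival screen with siRNA in ovarian cancer cells derived from patients, with or without rucaparib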 (primary screen)
System: human ovarian carcinoma lines grown from tumours: OCI-P5x (papillary serous) and OCI-C5x (clear cell)
Reagents: siRNA pool against human genes, 1.25 pmol siRNA per well
Time to read-out: 72 h or 96 h, depending on the cell culture
Treatment: rucaparib 20 µM (about IC30) or vehicle, present until read-out
Rucaparib or vehicle: Rucaparib
Cell line: OCI-P5x (serous)
Measurement: 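Luminescent ATP-based viability assay read 72 or 96 h after transfection, depending on culture, given as normalised percent viability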
Scale: viability, normalised: higher = more viable cells remaining
Hit rule: 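Active when normalised viability falls below 80 percent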
Calls: active = viability under 80%; inactive = viability 80% or more
Shown is an unselected part of the about 2,100 reagents, under one of the conditions tested. 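Calls flag viability under 80% in either arm, not effects specific to rucaparib; the reference for percent is not stated.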 Reagent sequences are not shown. Not stated in the record: the 100% reference.

| gene symbol | PubChem SID | technical replicate | viability, normalised (%) | outcome |
| --- | --- | --- | --- | --- |
| PRKAA1 | SID405527676 | 1 | 95.7 | inactive |
| PRKAA1 | SID405527676 | 2 | 85 | inactive |
| PRKAA1 | SID405527676 | 3 | 98.6 | inactive |
| DLG3 | SID405527911 | 1 | 84.4 | inactive |
| DLG3 | SID405527911 | 2 | 78.5 | active |
| DLG3 | SID405527911 | 3 | 75.1 | active |
| MPLKIP | SID405528263 | 1 | 71.3 | active |
| MPLKIP | SID405528263 | 2 | 59.5 | active |
| MPLKIP | SID405528263 | 3 | 60.8 | active |
| PDE1B | SID405526684 | 1 | 40.2 | active |
| PDE1B | SID405526684 | 2 | 41.5 | active |
| PDE1B | SID405526684 | 3 | 38.5 | active |
| SUZ12 | SID405526515 | 1 | 80 | inactive |
| SUZ12 | SID405526515 | 2 | 73 | active |
| SUZ12 | SID405526515 | 3 | 72.3 | active |
| CCNE1 | SID405526379 | 1 | 20.4 | active |
| CCNE1 | SID405526379 | 2 | 43 | active |
| CCNE1 | SID405526379 | 3 | 49.9 | active |
| PIWIL4 | SID405527165 | 1 | 61 | active |
| PIWIL4 | SID405527165 | 2 | 43.5 | active |
| PIWIL4 | SID405527165 | 3 | 61.2 | active |
| CTCFL | SID405528153 | 1 | 53.9 | active |
| CTCFL | SID405528153 | 2 | 54.4 | active |
| CTCFL | SID405528153 | 3 | 53.3 | active |
| ROR2 | SID405528524 | 1 | 80.4 | inactive |
| ROR2 | SID405528524 | 2 | 67.5 | active |
| ROR2 | SID405528524 | 3 | 83.5 | inactive |
| AGO4 | SID405527957 | 1 | 63.1 | active |
| AGO4 | SID405527957 | 2 | 45.5 | active |
| AGO4 | SID405527957 | 3 | 44.8 | active |
| STING1 | SID405526729 | 1 | 46.4 | active |
| STING1 | SID405526729 | 2 | 46.8 | active |
| STING1 | SID405526729 | 3 | 49.6 | active |
| CMPK1 | SID405527910 | 1 | 98.1 | inactive |
| CMPK1 | SID405527910 | 2 | 83 | inactive |
| CMPK1 | SID405527910 | 3 | 102 | inactive |
| HELLS | SID405526852 | 1 | 73.9 | active |
| HELLS | SID405526852 | 2 | 70.5 | active |
| HELLS | SID405526852 | 3 | 78.1 | active |
| PCDHB14 | SID405527122 | 1 | 23.1 | active |
| PCDHB14 | SID405527122 | 2 | 29.6 | active |
| PCDHB14 | SID405527122 | 3 | 28 | active |
| INTS12 | SID405526907 | 1 | 84.8 | inactive |
| INTS12 | SID405526907 | 2 | 68.3 | active |
| INTS12 | SID405526907 | 3 | 79.9 | active |
| INTS3 | SID405528337 | 1 | 84.2 | inactive |
| INTS3 | SID405528337 | 2 | 75.8 | active |
| INTS3 | SID405528337 | 3 | 74.8 | active |
| DLG5 | SID405527499 | 1 | 66.1 | active |
| DLG5 | SID405527499 | 2 | 69.8 | active |
| DLG5 | SID405527499 | 3 | 63.8 | active |
| JMJD6 | SID405526918 | 1 | 45.1 | active |
| JMJD6 | SID405526918 | 2 | 47.4 | active |
| JMJD6 | SID405526918 | 3 | 55.7 | active |
| ARID3B | SID405527977 | 1 | 53.9 | active |
| ARID3B | SID405527977 | 2 | 52.3 | active |
| ARID3B | SID405527977 | 3 | 46.3 | active |
